These are yes or no findings as the source states them, for the method shown. In cells and extracts the contact can be indirect. Some binding calls cover weakened binding; strength is not graded here. Sequences can lack the tags named with a protein.
T1: V5-tagged human WT UNC93B1 (pcDNA 3.1, in 293FT cells) (human) (UniProt Q9H1C4)
T1 sequence: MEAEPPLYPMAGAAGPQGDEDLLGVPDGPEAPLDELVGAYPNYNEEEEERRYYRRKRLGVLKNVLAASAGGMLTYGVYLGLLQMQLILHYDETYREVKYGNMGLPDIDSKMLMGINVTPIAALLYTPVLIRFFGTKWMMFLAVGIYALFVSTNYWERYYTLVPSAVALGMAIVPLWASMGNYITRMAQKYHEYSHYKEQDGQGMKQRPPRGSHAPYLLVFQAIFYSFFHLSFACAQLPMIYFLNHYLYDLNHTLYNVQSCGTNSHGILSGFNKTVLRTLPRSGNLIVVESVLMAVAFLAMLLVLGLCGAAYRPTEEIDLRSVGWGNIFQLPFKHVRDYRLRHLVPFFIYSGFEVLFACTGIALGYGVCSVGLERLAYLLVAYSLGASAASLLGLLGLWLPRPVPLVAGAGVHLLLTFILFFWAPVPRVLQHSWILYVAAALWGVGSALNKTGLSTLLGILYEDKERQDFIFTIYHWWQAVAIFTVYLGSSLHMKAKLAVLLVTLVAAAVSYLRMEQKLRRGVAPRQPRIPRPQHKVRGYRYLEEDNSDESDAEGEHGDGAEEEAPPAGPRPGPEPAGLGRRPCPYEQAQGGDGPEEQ

The chains behind the UniProt entries cited, without tags or fusion partners.
UniProt O00560: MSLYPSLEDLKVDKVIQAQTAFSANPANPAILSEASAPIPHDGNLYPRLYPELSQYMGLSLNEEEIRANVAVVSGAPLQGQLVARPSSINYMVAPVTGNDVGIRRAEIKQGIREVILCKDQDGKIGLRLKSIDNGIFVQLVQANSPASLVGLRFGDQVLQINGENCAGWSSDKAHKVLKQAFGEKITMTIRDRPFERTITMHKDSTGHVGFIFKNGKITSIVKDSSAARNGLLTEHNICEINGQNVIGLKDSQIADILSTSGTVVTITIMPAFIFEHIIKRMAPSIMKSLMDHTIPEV

T2: V5-tagged UNC93B1 L330R (pcDNA 3.1, in 293FT cells) (human) (UniProt Q9H1C4)
T2 sequence: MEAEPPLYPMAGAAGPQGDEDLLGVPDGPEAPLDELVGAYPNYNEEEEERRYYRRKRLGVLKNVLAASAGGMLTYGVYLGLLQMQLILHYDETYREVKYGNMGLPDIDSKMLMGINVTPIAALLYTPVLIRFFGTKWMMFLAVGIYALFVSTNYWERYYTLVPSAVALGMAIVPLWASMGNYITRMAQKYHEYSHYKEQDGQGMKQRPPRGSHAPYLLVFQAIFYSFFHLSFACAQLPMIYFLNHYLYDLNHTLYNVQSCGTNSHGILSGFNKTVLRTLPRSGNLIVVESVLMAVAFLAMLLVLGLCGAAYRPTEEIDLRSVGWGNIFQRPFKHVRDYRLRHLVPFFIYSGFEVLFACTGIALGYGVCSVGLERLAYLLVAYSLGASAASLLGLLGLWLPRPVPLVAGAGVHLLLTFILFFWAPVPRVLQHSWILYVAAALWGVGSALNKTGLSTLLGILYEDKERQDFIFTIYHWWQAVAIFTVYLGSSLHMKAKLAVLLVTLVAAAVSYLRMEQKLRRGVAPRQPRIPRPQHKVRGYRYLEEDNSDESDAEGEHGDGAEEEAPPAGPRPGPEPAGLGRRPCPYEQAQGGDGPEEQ

T3: V5-tagged UNC93B1 R466S (pcDNA 3.1, in 293FT cells) (human) (UniProt Q9H1C4)
T3 sequence: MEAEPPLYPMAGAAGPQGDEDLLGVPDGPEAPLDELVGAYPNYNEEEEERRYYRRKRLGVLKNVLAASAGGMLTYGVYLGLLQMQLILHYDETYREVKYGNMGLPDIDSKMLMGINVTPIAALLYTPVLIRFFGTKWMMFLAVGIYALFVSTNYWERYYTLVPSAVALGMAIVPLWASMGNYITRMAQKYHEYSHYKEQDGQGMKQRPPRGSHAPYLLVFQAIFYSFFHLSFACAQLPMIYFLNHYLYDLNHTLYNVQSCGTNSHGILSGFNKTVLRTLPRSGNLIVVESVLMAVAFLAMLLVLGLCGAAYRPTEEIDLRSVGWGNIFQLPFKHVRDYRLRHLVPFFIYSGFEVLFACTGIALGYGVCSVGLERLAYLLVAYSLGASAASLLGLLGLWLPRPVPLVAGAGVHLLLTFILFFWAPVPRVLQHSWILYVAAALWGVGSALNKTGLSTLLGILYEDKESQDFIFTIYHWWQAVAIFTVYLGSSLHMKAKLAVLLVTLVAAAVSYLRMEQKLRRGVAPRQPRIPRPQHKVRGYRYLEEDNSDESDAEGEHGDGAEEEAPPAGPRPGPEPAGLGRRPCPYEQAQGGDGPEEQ

T4: V5-tagged UNC93B1 R525P (pcDNA 3.1, in 293FT cells) (human) (UniProt Q9H1C4)
T4 sequence: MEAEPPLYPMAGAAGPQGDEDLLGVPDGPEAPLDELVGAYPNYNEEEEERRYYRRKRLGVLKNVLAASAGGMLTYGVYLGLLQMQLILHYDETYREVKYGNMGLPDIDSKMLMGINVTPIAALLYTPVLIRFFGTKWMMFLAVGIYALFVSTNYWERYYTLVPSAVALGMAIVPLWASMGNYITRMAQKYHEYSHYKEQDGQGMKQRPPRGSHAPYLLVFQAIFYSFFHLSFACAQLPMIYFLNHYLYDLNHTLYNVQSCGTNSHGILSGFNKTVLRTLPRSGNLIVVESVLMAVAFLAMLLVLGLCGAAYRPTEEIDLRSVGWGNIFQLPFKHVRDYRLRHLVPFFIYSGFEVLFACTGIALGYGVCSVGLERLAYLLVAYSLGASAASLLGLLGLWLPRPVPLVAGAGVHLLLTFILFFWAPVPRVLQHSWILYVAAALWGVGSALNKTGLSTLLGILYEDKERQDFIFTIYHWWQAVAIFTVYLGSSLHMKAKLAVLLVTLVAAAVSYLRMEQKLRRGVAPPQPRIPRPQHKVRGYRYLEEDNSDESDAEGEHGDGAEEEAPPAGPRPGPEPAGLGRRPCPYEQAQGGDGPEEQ


How the values were obtained:
Experiment in all cases: co-IP; 293FT cells cotransfected with TLR7 or TLR8 and V5-tagged UNC93B1 WT or variants (pcDNA 3.1); lysis in 50 mM Tris pH 7.4, 150 mM NaCl, 0.5% NP-40, 5 mM EDTA; V5-Trap agarose beads overnight at 4°C; western blot
[1] = target: T1, V5-tagged human WT UNC93B1 (pcDNA 3.1, in 293FT cells) (human)
[2] = target: T2, V5-tagged UNC93B1 L330R (pcDNA 3.1, in 293FT cells) (human)
[3] = target: T3, V5-tagged UNC93B1 R466S (pcDNA 3.1, in 293FT cells) (human)
[4] = target: T4, V5-tagged UNC93B1 R525P (pcDNA 3.1, in 293FT cells) (human)

Molecule | binding [1] | binding [2] | binding [3] | binding [4]
syntenin-1 (from UniProt O00560 1-298) | no binding | – | – | –
TLR8 (transfected in 293FT cells) (receptor, UniProt Q9NR97 27-1041) EENFSRSYPCDEKKQNDSVIAECSNRRLQEVPQTVGKYVTELDLSDNFITHITNESFQGLQNLTKINLNHNPNVQHQNGNPGIQSNGLNITDGAFLNLKNLRELLLEDNQLPQIPSGLPESLTELSLIQNNIYNITKEGISRLINLKNLYLAWNCYFNKVCEKTNIEDGVFETLTNLELLSLSFNSLSHVPPKLPSSLRKLFLSNTQIKYISEEDFKGLINLTLLDLSGNCPRCFNAPFPCVPCDGGASINIDRFAFQNLTQLRYLNLSSTSLRKINAAWFKNMPHLKVLDLEFNYLVGEIASGAFLTMLPRLEILDLSFNYIKGSYPQHINISRNFSKLLSLRALHLRGYVFQELREDDFQPLMQLPNLSTINLGINFIKQIDFKLFQNFSNLEIIYLSENRISPLVKDTRQSYANSSSFQRHIRKRRSTDFEFDPHSNFYHFTRPLIKPQCAAYGKALDLSLNSIFFIGPNQFENLPDIACLNLSANSNAQVLSGTEFSAIPHVKYLDLTNNRLDFDNASALTELSDLEVLDLSYNSHYFRIAGVTHHLEFIQNFTNLKVLNLSHNNIYTLTDKYNLESKSLVELVFSGNRLDILWNDDDNRYISIFKGLKNLTRLDLSLNRLKHIPNEAFLNLPASLTELHINDNMLKFFNWTLLQQFPRLELLDLRGNKLLFLTDSLSDFTSSLRTLLLSHNRISHLPSGFLSEVSSLKHLDLSSNLLKTINKSALETKTTTKLSMLELHGNPFECTCDIGDFRRWMDEHLNVKIPRLVDVICASPGDQRGKSIVSLELTTCVSDVTAVILFFFTFFITTMVMLAALAHHLFYWDVWFIYNVCLAKVKGYRSLSTSQTFYDAYISYDTKDASVTDWVINELRYHLEESRDKNVLLCLEERDWDPGLAIIDNLMQSINQSKKTVFVLTKKYAKSWNFKTAFYLALQRLMDENMDVIIFILLEPVLQHSQYLRLRQRICKSSILQWPDNPKAEGLFWQTLRNVVLTENDSRYNNMYVDSIKQY | binds | binds | binds | binds
TLR7 (transfected in 293FT cells) (receptor, UniProt Q9NYK1 27-1049) ARWFPKTLPCDVTLDVPKNHVIVDCTDKHLTEIPGGIPTNTTNLTLTINHIPDISPASFHRLDHLVEIDFRCNCVPIPLGSKNNMCIKRLQIKPRSFSGLTYLKSLYLDGNQLLEIPQGLPPSLQLLSLEANNIFSIRKENLTELANIEILYLGQNCYYRNPCYVSYSIEKDAFLNLTKLKVLSLKDNNVTAVPTVLPSTLTELYLYNNMIAKIQEDDFNNLNQLQILDLSGNCPRCYNAPFPCAPCKNNSPLQIPVNAFDALTELKVLRLHSNSLQHVPPRWFKNINKLQELDLSQNFLAKEIGDAKFLHFLPSLIQLDLSFNFELQVYRASMNLSQAFSSLKSLKILRIRGYVFKELKSFNLSPLHNLQNLEVLDLGTNFIKIANLSMFKQFKRLKVIDLSVNKISPSGDSSEVGFCSNARTSVESYEPQVLEQLHYFRYDKYARSCRFKNKEASFMSVNESCYKYGQTLDLSKNSIFFVKSSDFQHLSFLKCLNLSGNLISQTLNGSEFQPLAELRYLDFSNNRLDLLHSTAFEELHKLEVLDISSNSHYFQSEGITHMLNFTKNLKVLQKLMMNDNDISSSTSRTMESESLRTLEFRGNHLDVLWREGDNRYLQLFKNLLKLEELDISKNSLSFLPSGVFDGMPPNLKNLSLAKNGLKSFSWKKLQCLKNLETLDLSHNQLTTVPERLSNCSRSLKNLILKNNQIRSLTKYFLQDAFQLRYLDLSSNKIQMIQKTSFPENVLNNLKMLLLHHNRFLCTCDAVWFVWWVNHTEVTIPYLATDVTCVGPGAHKGQSVISLDLYTCELDLTNLILFSLSISVSLFLMVMMTASHLYFWDVWYIYHFCKAKIKGYQRLISPDCCYDAFIVYDTKDPAVTEWVLAELVAKLEDPREKHFNLCLEERDWLPGQPVLENLSQSIQLSKKTVFVMTDKYAKTENFKIAFYLSHQRLMDEKVDVIILIFLEKPFQKSKFLQLRKRLCGSSVLEWPTNPQAHPYFWQCLKNALATDNHVAYSQVFKETV | binds | binds | binds | binds
